Source: publication PMC3869717, “The PCNA Interaction Protein Box Sequence in Rad54 Is an Integral Part of Its ATPase Domain and Is Required for Efficient DNA Repair and Recombination”
Where a chain is given by its changes, count along the chain named. In names and notes the source's numbering stands. Results are given in words; binding and its absence hold for the method and conditions named. Some results given as binding are weak or reduced against the parent protein; the word gives no strength. Each block holds one molecule with its values, some of them ahead of it.

Amino acid sequences for entries named in this document (tags omitted).
UniProt P15873: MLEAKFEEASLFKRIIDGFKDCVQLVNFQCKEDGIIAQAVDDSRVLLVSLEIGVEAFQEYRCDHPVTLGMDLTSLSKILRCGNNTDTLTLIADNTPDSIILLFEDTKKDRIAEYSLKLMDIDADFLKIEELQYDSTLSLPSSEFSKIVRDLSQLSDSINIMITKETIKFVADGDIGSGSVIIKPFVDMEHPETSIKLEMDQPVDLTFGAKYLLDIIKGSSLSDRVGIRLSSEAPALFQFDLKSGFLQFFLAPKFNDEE
UniProt P25454: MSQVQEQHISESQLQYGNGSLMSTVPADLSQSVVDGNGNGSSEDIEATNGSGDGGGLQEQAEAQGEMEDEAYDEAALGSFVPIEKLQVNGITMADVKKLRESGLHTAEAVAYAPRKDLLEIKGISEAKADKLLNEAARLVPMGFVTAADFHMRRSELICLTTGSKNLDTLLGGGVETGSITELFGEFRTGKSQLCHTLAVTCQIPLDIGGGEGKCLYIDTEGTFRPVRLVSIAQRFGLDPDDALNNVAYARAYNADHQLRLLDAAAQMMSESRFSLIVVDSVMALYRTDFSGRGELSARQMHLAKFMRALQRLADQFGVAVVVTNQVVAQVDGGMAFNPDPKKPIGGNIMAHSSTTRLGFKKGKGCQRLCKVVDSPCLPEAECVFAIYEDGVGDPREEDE

Key:
[1] = biological target: T1, Rad54 (S. cerevisiae, wild type) (S. cerevisiae) (UniProt P32863); assay: pull-down; 3 ug Rad51 incubated with 3 ug Rad54 or Rad54-AA in 30 ul buffer T (20 mM Tris-HCl pH 7.5, 150 mM KCl, 1 mM DTT, 0.5 mM EDTA, 0.01% NP40), 30 min at 4°C, then Ni-NTA agarose 30 min at 4°C; eluted with 5% SDS, 12% SDS-PAGE; both purified
T1 sequence: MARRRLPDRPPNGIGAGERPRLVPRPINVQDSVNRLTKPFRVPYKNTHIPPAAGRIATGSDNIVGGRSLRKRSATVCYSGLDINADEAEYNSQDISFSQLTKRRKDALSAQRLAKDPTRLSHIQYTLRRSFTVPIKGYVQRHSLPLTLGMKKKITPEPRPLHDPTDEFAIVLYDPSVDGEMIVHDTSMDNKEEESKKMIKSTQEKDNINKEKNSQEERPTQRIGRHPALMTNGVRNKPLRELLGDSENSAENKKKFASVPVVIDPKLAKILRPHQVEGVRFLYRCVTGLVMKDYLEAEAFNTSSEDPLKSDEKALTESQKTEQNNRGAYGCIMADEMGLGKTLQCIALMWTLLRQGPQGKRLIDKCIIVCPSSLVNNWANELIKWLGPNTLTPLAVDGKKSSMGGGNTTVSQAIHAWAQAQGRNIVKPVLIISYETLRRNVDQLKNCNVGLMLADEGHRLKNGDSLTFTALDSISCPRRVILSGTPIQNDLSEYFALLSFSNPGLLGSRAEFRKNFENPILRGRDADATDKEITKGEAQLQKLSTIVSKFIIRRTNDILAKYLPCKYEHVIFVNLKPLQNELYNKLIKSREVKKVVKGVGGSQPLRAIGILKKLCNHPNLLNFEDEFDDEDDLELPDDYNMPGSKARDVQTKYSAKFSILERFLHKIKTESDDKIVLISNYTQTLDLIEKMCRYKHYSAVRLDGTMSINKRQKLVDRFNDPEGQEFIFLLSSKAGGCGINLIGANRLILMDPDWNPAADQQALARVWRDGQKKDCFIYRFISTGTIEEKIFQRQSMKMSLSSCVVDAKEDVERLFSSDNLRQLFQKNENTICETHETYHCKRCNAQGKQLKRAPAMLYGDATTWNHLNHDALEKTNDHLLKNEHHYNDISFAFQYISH

[2] = biological target: T2, Rad54-AA (Y494A, F495A) mutant protein (S. cerevisiae) (UniProt P32863); assay: as above
T2 sequence: T1 sequence with Y494A, F495A

[3] = biological target: proliferating cell nuclear antigen (PCNA) (UniProt P15873); assay: pull-down; peptide competition: Rad54 mixed with PCNA immobilised on Affi-beads in the presence of the peptide pFF or pAA, or without peptide; supernatant and eluate on 12% SDS-PAGE, Coomassie; both purified
[4] = biological target: proliferating cell nuclear antigen (PCNA) (UniProt P15873); assay: pull-down; Rad51 competition: 4 ug Rad51 pre-incubated with 3 ug Rad54 before the Affi-PCNA beads, or 4 or 15 ug Rad51 added to the Rad54-PCNA complex pre-assembled on Affi-PCNA beads; washing and SDS elution, Coomassie; both purified
[5] = biological target: proliferating cell nuclear antigen (PCNA) (UniProt P15873); assay: pull-down; PCNA immobilised on Affi-gel 15 beads (5 mg/ml, 5 ul); 3 ug Rad54 or Rad54-AA in 30 ul buffer K (10 mM Na2HPO4, 1.8 mM KH2PO4 pH 7.4, 100 mM or 200 mM KCl), 30 min on ice; SDS eluate on 12% SDS-PAGE, Coomassie or anti-Rad54 blot; both purified

binding [1]: binds | binding [2]: binds
Molecule: Rad51 (from UniProt P25454 1-400)

binding [3]: binds
Molecule: VILSGTPIQNDLSEYFALLSFSNP [pFF, oligopeptide derived from the Rad54 PIP box]

binding [4]: binds | binding [3]: binds | binding [5]: binds
B1: Rad54 (S. cerevisiae, wild type) (protein, UniProt P32863 1-898)
chain: T1 sequence

binding [5]: binds
B2: Rad54-AA (Y494A, F495A) mutant protein (protein, UniProt P32863 1-898)
chain: T1 sequence with Y494A, F495A
